Results taken from paper PMC6242907, “Molecular basis of maintaining an oxidizing environment under anaerobiosis by soluble fumarate reductase” (Nature Communications, 2018).
These are yes or no findings as the source states them, for the method shown. Binding seen in cells or lysates may run through a third protein. Some results given as binding are weak or reduced against the parent protein; the word gives no strength. Sequences can lack the tags named with a protein.

Molecular target: T1, FLAG-tagged Ero1 (yeast) (UniProt Q03103)
T1 sequence: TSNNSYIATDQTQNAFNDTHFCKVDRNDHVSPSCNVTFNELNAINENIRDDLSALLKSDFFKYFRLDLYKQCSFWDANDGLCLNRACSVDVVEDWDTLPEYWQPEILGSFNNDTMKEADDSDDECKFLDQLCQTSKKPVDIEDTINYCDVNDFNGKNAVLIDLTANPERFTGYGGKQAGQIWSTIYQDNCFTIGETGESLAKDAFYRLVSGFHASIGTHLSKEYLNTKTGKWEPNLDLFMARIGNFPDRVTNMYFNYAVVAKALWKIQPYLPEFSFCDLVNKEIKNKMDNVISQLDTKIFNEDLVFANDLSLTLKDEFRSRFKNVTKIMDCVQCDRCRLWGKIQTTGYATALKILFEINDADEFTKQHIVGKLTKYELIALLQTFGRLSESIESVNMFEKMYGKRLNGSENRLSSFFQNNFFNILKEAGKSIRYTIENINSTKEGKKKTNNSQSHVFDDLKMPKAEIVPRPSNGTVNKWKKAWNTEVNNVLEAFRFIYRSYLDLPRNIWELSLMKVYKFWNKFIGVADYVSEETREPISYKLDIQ
Experiment: co-IP; lysates of yeast BY4742 over-expressing Ero1-FLAG (or Ero1-3xMyc as control) and Osm1-3xHA; anti-FLAG affinity beads, TBS, 1% Triton, on ice; immunoblot

B1: 3x HA-tagged Osm1 (enzyme, UniProt P21375 33-501)
chain: MKQPVVVIGSGLAGLTTSNRLISKYRIPVVLLDKAASIGGNSIKASSGINGAHTDTQQNLKVMDTPELFLKDTLHSAKGRGVPSLMDKLTKESKSAIRWLQTEFDLKLDLLAQLGGHSVPRTHRSSGKLPPGFEIVQALSKKLKDISSKDSNLVQIMLNSEVVDIELDNQGHVTGVVYMDENGNRKIMKSHHVVFCSGGFGYSKEMLKEYSPNLIHLPTTNGKQTTGDGQKILSKLGAELIDMDQVQVHPTGFIDPNDRENNWKFLAAEALRGLGGILLHPTTGRRFTNELSTRDTVTMEIQSKCPKNDNRALLVMSDKVYENYTNNINFYMSKNLIKKVSINDLIRQYDLQTTASELVTELKSYSDVNTKDTFDRPLIINAFDKDISTESTVYVGEVTPVVHFTMGGVKINEKSQVIKKNSESVLSNGIFAAGEVSGGVHGANRLGGSSLLECVVFGKTAADNIAKLY
  binding: binds weakly
